Laboratory results published in the supplement of paper PMC5949888.
Most values lie at the floor of the assay. Slopes are relative: functional sequences can read slightly below zero.

test system: Saccharomyces cerevisiae PS128 hsf1 delta, HSF1(1-493) fusion; experiment: growth estimate (transactivation domain function in HSF1 fusion, heat-shock survival) (a.u. (slope of normalised read count over time)); higher = stronger growth at 37°C, i.e. more transactivation activity; details: library: random library
Method: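 Random 60-nt DNA library encoding peptides of up to 20 aa, fused to the C-terminus of yeast HSF1 residues 1-493 (C-terminal TAD deleted) and expressed from the native HSF1 promoter on a CEN plasmid in hsf1-deleted S. cerevisiae PS128. Cells were selected at 37°C on -trp 5-FOA plates for 0, 2, 4, 6 and 8 days and amplicons were sequenced. Growth estimate is the slope of a robust linear fit of total-sum-normalised read counts (normalised to the first time point) over time, using at least 2 replicates. Sequences are classed functional (TAD activity) above a threshold of -0.13, set from stop-codon control sequences.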

Row | Substance | growth estimate
1 | GTVFMDVNIRVLHTARHSPP | < -0.25
2 | GTVHVPYHRISWDTRS | < -0.25
3 | GTVPRVGLASLDICVHDVSA | < -0.25
4 | GTYGIVVASAV | < -0.25
5 | GVALYVIS | < -0.25
6 | GVARTISLICPVRCSRRGRI | < -0.25
7 | GVAVGAALIKMVHGHGHVCL | < -0.25
8 | GVCCVRIIWDVWPLEQRRTP | < -0.25
9 | GVDRVASSSTWGSEKRVDLI | < -0.25
10 | GVDTCRLCITAPGVQCVSHI | < -0.25
11 | GVEMAT | < -0.25
12 | GVEMISHVNGRQLARSYPHR | < -0.25
13 | GVENR | < -0.25
14 | GVESDMYSRI | < -0.25
15 | GVESLYELARVGRVLTRPKC | < -0.25
16 | GVESRLLTDPTGNPLN | < -0.25
17 | GVETHLR | < -0.25
18 | GVEYVLHGCRGNSRLYVNVC | < -0.25
19 | GVGCGQRAKSKVLYTNMKLH | < -0.25
20 | GVGDTCTLRRPIVGIVYMQS | < -0.25
21 | GVGDYLLLDLMNTIWYMGKV | -0.173
22 | GVGLAVCGYRVIETIAALGT | < -0.25
23 | GVGNELWLGLSSLAHMGNSP | < -0.25
24 | GVGNKQA | < -0.25

Row | Substance | growth estimate
25 | GVGSRAGYEQRRRA | < -0.25
26 | GVGTVPKATNGLVSCQRSQG | < -0.25
27 | GVIHIQVRT | < -0.25
28 | GVLADCAPRRDMLKPP | < -0.25
29 | GVLE | < -0.25
30 | GVLIYPQFNVVNCLRGFYPG | < -0.25
31 | GVLLVYV | < -0.25
32 | GVLLYD | < -0.25
33 | GVLMDGRWAPWRTPGY | < -0.25
34 | GVLNRRSSWSRLSM | < -0.25
35 | GVLQCLIYCDEHIQLRVSQP | < -0.25
36 | GVLRACLRKYGVPRGPWSTS | < -0.25
37 | GVLRRR | < -0.25
38 | GVLSWRTQDRGIAFRSVSYA | < -0.25
39 | GVMYSGVV | < -0.25
40 | GVPANGTTK | < -0.25
41 | GVPDTEFGSSSAEEDRMIIG | < -0.25
42 | GVPMVKGYVRTGPI | < -0.25
43 | GVPST | < -0.25
44 | GVPT | < -0.25
45 | GVQGRVLVLLSCDTCRSMDP | < -0.25
46 | GVQGVREIERILYR | < -0.25
47 | GVQLGCSRCQ | < -0.25
48 | GVQPRGALTDSLSELFGVGP | < -0.25

Fetched one by one from the list above, 2 records:
Row | Substance | growth estimate
45 | GVQGRVLVLLSCDTCRSMDP | < -0.25
44 | GVPT | < -0.25

Next part.

Row | Substance | growth estimate
49 | GVRTKVDHTVF | < -0.25
50 | GVRWEHSKFYATGPRMGRIC | -0.246
51 | GVSHCTVAVVVVKDALDGED | < -0.25
52 | GVSPSLFLTTYGEWVR | < -0.25
53 | GVSSEGATSPRVTALFYLCH | < -0.25
54 | GVTARGVRTPCNMPLLY | < -0.25
55 | GVTGRCQVMSVLGHNGYDRR | < -0.25
56 | GVTYFQRNLTTSNALCCGLT | < -0.25
57 | GVVHFEHPRR | < -0.25
58 | GVVRGTGRLRSSVPTSLHSP | < -0.25
59 | GVVSLLRVCACGGGSRVKET | < -0.25
60 | GVVSQFGLKRTVRGCPRTET | < -0.25
61 | GVVVLARTAKKSRHVLHSKG | < -0.25
62 | GVWDAEHTRA | < -0.25
63 | GVYGLVMVDCILVRLRKFRL | < -0.25
64 | GVYNSKECAQ | < -0.25
65 | GVYRYRSRGFYTSADDPCPK | < -0.25
66 | GVYSCAIRMKDESQGLALGV | < -0.25
67 | GVYTCGGSRPLRTVRETESF | < -0.25
68 | GWATF | < -0.25
69 | GWCLQSVQAVPLRLALSKTQ | < -0.25
70 | GWCRRRINRLEWPPIPNRSS | < -0.25
71 | GWDVGHARQSCAHGI | < -0.25
72 | GWEEDLAKLRIARAGSL | < -0.25

Part of the list above, with each value named.
GVVSLLRVCACGGGSRVKET
  growth estimate = < -0.25
GVVSQFGLKRTVRGCPRTET
  growth estimate = < -0.25

Remaining list, next part:

Row | Substance | growth estimate
73 | GWEESRAT | < -0.25
74 | GWEPLPHTRG | < -0.25
75 | GWFIHVKPWDRWAQVS | < -0.25
76 | GWGANFPSNGCTNDRPGA | < -0.25
77 | GWGCLEFSSQ | < -0.25
78 | GWHLESPQVNRLEHMLSFPK | < -0.25
79 | GWISARLCAQASVFGLHQPR | < -0.25
80 | GWISILRGLYASFECLYT | < -0.25
81 | GWLVHDALVRLWF | < -0.25
82 | GWN | < -0.25
83 | GWNSPPPKMKRRLLGHRVAR | < -0.25
84 | GWPEAIYGDFDPLQTSGVHG | < -0.25
85 | GWRTDWVAAQRDCCPVAPRR | < -0.25
86 | GWS | < -0.25
87 | GWSFPGAKRTLSGSVKA | < -0.25
88 | GWSR | < -0.25
89 | GWSV | < -0.25
90 | GWTSTRLLGPPND | < -0.25
91 | GWVPMGNWSAHQRGKSCGAW | < -0.25
92 | GWVVVKSVVRRT | < -0.25
93 | GWYQSCVITGDTGACVTLLR | < -0.25
94 | GWYVAKTPV | < -0.25
95 | GYAQPTGTEFLCTLICWIGP | -0.237
